Measured values: PMC8041195
No constants are given. Whether binding was seen depends on the method and setting. In cells and extracts the contact can be indirect. Some entries that bind do so weakly or less than the wild type. Tags and fused reporters may be left off the sequences shown.

T1: Snx3 fused to the C-terminal half of Venus YFP (VC) (S. pombe) (UniProt O94291)
T1 sequence: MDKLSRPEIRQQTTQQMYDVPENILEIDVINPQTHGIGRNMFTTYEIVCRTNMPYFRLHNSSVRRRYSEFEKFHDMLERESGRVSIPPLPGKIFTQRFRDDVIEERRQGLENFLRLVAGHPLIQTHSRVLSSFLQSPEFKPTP

T2: GFP-Stx8 (S. pombe) (UniProt O14222)
T2 sequence: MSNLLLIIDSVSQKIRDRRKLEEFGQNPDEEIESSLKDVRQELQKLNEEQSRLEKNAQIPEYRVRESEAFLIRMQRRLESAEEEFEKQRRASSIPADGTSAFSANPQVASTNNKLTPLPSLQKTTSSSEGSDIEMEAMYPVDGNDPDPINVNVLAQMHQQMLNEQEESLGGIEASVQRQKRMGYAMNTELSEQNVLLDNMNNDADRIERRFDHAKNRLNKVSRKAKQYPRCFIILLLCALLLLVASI


Assays:
[1] = target: T1, Snx3 fused to the C-terminal half of Venus YFP (VC) (S. pombe); assay: split reporter; BiFC in S. pombe cells: VN on the N-terminal end of Stx8, VC on the C-terminal end of Snx3; confocal spinning-disk fluorescence microscopy
GFP-Stx8 (S. pombe) = target: T2, GFP-Stx8 (S. pombe); assay: co-IP; cleared lysates of S. pombe stx8Δ vps28Δ strains (also with snx3Δ or vps5Δ) in 20 mM HEPES pH 7.5, 150 mM NaCl, 5 mM EDTA, 0.2% Triton X100; 3 mg lysate treated with 1 mM DSP 1 h at 4°C; IP with anti-GFP μMAC magnetic beads; blot with anti-GFP and anti-HA

Row | binding [1] | binding (GFP-Stx8 (S. pombe)) | Binder
1 | binds | – | Stx8 fused to the N-terminal half of Venus YFP (VN) (protein, UniProt O14222 1-247) MSNLLLIIDSVSQKIRDRRKLEEFGQNPDEEIESSLKDVRQELQKLNEEQSRLEKNAQIPEYRVRESEAFLIRMQRRLESAEEEFEKQRRASSIPADGTSAFSANPQVASTNNKLTPLPSLQKTTSSSEGSDIEMEAMYPVDGNDPDPINVNVLAQMHQQMLNEQEESLGGIEASVQRQKRMGYAMNTELSEQNVLLDNMNNDADRIERRFDHAKNRLNKVSRKAKQYPRCFIILLLCALLLLVASI
2 | – | binds | Vps35-HA (protein, UniProt O74552 1-836) MNGINTANEEITRSLEESLNICKQSSRLMQRNLQTGRLMDAFRNCSISLVEMRNSALTPKQYYELYMFNMESLRLLGGTLLETHLNGTHNLMDLYELVQYAGSIVPRLYLMITVGSAYLETPNALVREIMNDLLDMCRGVQHPLRGLFLRHYLLTQTRKGLPLGSEDEEDASRKGTVLDSVKFLVINFTEMNKLWVRIQHLGPIKEFSKRTQERNELKVLVGLNLVRLSQLNLDIDTYRDHVLPAIIEQIIECRDSLAQEYLVEVICQAFSDNMHLQTLDTYFGTVIKLSPSVNVTQLVVAMLNRLTDYVQREYESDSSNEDESETVTEKLGDIKINEEVQQKDEQECPGDKVIPPEYAIQEVLWSHVVEVIQSRSGLPLDCIVSILSSILNFFLRCYPYKPQYADRVFQYINEHIINQPSLRSALHERPLQKSLCAILLLPLTYFPSFSYCLELQNFLPVFNAQDPNLRYDIARMIVQKIIEKGHSLSELTEAQELLGFVSVIIEKKGVDSLDDLQNVALMVHYLNNDDPQIQIEILRSLKDTFIKAGENVKYLLPVVVNRCIFLARNFRIFKCMDWAEKVRLLWEFVNTCINVLYKNGDSLELCLALYLSAAEMADQENYPDFAYEFFTQAFSIYEESVLDSELQYQQLLMIIGKLQKTRNFSVDDYDTLITKCTLYASKLLKKPDQCCGIYLASHLWWQVASGEDSRPFQDPKRVLECLQKSLKIADACMDQLTSLKLFINILERYFYYYDQHCESIIAKHISGLIDLTEQNMRSILISSPADLIASDPRAYASSIWEVANVSVIDSLKNHLERATAYAEKRSEDERWSSIFQ
